Drawing on the supplement of paper PMC6411743, this text covers NP40-soluble protein abundance for 20 targets.

Protein sequences, listed by entry. Tags and fused reporters are not part of them. Lines headed by an entry give the natural chain unless they say otherwise; changes in a name come on top.
UniProt Q9UJY5: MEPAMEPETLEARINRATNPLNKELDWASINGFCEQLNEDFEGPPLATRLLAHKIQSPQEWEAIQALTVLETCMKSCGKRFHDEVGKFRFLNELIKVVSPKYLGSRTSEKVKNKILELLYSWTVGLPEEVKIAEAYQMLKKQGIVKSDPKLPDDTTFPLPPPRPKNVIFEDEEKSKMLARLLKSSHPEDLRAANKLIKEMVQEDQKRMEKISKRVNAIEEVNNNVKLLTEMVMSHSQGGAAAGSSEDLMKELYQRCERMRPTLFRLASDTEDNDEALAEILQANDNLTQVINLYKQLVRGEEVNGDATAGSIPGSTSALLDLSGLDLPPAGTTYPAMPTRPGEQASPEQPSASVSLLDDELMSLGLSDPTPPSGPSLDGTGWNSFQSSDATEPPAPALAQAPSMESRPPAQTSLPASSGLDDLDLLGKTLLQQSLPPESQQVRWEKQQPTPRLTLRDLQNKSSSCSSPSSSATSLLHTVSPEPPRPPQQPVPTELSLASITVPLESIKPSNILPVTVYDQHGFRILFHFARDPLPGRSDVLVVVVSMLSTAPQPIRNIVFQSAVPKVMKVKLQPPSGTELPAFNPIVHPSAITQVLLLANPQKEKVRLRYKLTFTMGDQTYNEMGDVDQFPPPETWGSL
UniProt Q9UNW1: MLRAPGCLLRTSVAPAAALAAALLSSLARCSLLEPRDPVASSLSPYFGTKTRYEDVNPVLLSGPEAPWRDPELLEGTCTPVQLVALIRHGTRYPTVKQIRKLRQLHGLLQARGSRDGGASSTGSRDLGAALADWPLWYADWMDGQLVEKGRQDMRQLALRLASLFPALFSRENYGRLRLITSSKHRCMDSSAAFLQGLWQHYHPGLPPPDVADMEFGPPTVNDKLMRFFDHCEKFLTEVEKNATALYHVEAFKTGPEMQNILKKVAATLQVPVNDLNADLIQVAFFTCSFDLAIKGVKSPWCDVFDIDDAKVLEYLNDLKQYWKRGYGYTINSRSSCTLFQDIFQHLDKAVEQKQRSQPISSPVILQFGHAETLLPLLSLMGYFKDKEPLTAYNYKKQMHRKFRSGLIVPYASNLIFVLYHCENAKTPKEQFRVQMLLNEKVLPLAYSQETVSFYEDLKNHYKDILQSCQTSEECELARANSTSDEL
UniProt Q9UBW7: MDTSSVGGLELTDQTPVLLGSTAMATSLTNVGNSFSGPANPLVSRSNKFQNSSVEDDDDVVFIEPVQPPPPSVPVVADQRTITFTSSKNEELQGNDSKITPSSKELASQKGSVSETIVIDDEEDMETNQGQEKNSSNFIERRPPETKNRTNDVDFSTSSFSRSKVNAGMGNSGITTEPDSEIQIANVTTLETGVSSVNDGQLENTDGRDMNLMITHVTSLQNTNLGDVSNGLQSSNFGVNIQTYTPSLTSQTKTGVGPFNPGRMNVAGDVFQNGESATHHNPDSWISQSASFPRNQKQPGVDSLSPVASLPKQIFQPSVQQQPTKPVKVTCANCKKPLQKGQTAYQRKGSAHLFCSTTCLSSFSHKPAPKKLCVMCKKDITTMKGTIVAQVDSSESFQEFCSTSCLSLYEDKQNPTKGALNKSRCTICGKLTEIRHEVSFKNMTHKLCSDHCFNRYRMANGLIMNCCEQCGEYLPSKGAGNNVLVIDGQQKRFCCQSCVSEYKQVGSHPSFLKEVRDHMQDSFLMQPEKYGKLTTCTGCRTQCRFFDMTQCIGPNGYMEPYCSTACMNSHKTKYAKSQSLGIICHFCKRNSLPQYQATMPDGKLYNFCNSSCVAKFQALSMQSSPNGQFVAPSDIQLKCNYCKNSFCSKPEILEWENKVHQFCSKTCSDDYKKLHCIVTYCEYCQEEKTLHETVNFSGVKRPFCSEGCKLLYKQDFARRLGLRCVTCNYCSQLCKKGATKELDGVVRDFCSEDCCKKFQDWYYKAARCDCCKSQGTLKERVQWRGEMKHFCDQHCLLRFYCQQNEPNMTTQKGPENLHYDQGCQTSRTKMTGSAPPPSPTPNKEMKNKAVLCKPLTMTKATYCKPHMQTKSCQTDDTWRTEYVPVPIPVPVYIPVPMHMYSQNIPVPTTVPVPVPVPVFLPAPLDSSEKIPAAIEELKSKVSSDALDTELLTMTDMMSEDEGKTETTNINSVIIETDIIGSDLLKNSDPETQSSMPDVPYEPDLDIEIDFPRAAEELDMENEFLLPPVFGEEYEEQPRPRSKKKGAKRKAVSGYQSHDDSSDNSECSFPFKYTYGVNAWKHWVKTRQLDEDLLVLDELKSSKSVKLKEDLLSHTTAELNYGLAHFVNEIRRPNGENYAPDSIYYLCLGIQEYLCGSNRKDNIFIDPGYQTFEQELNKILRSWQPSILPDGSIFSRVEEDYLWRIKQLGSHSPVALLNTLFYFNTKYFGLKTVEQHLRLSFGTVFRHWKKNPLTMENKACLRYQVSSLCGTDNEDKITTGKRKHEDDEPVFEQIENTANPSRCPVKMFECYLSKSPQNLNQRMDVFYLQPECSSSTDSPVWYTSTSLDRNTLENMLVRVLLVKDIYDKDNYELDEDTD
UniProt Q9Y250: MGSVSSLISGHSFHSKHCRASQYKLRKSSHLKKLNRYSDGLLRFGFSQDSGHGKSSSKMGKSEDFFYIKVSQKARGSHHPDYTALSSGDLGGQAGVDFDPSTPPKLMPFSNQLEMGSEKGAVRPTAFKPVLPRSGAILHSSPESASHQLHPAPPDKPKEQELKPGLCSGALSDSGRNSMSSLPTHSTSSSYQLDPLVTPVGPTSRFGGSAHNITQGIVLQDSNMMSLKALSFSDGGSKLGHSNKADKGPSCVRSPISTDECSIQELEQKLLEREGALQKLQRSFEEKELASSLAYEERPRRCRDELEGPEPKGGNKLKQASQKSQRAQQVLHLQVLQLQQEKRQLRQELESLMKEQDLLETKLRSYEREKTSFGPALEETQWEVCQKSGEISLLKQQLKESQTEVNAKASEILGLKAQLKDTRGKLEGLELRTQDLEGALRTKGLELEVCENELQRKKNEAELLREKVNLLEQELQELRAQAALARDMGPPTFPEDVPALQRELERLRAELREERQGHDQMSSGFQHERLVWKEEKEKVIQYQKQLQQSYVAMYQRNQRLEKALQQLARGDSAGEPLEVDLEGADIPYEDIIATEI
UniProt Q9UN37: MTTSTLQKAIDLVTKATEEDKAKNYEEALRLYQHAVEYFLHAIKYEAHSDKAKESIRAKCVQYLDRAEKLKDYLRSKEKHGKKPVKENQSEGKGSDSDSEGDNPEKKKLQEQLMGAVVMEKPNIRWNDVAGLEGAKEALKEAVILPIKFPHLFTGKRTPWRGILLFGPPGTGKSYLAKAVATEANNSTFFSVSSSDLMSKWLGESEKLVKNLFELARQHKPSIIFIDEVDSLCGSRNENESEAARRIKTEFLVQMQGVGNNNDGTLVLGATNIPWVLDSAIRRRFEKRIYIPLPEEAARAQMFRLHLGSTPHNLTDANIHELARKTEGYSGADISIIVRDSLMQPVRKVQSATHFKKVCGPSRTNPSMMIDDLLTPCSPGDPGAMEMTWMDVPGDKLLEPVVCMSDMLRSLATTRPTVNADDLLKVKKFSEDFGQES
UniProt Q9UER7, whole entry: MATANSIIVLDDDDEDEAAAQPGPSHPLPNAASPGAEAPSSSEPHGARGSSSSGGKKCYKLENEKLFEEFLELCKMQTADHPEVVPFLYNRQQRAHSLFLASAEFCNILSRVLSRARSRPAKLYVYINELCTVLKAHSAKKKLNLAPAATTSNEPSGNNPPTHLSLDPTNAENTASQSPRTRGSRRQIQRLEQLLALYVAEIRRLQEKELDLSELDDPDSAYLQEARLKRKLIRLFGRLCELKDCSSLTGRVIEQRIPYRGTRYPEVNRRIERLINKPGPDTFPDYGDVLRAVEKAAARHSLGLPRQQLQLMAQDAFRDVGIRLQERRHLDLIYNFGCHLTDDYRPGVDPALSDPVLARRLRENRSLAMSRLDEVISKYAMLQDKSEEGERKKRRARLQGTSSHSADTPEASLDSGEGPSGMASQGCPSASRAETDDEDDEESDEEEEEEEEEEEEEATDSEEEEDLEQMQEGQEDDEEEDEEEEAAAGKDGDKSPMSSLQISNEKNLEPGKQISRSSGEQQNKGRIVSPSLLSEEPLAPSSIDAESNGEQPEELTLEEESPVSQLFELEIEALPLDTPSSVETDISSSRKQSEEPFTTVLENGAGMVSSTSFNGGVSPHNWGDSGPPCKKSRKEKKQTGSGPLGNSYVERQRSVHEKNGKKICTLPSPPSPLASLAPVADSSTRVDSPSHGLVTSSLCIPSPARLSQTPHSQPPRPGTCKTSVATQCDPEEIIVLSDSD
UniProt Q9UHC7: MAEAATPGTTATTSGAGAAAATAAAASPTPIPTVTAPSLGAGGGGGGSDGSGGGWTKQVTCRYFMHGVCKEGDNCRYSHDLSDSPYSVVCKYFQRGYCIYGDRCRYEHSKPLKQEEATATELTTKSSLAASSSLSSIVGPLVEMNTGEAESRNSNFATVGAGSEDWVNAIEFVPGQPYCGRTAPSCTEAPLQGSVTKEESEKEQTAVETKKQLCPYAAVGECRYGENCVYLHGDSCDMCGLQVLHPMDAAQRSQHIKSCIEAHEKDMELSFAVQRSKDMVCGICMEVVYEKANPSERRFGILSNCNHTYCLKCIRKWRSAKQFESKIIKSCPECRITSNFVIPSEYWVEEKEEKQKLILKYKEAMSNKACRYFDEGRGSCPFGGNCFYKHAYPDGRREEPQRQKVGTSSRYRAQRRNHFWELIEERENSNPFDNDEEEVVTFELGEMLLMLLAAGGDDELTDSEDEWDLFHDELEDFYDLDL
UniProt Q9UK41: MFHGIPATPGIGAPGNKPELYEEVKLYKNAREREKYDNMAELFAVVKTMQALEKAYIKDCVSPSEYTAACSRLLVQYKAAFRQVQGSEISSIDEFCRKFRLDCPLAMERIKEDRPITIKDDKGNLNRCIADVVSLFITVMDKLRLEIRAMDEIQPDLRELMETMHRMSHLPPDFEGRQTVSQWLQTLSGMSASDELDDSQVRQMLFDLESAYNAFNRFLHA
UniProt Q9UFW8: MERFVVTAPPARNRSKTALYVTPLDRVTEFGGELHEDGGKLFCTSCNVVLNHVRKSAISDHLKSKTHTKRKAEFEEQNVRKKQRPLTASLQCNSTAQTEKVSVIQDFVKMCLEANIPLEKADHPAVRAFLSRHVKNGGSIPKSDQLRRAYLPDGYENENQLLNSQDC
UniProt Q9UH92: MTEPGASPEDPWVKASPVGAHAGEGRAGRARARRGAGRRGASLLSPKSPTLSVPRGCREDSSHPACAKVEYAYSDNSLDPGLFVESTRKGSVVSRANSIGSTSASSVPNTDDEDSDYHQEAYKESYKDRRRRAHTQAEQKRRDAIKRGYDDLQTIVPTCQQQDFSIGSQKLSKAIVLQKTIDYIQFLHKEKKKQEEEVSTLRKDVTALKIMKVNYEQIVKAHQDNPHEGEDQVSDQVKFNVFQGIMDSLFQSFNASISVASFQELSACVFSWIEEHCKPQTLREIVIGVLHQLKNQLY
UniProt Q9UI09, whole entry: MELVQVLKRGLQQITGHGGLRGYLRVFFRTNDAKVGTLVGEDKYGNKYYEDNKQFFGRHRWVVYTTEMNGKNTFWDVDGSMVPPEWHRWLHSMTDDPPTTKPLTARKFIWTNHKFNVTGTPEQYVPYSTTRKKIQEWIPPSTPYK
UniProt Q9Y296, whole entry: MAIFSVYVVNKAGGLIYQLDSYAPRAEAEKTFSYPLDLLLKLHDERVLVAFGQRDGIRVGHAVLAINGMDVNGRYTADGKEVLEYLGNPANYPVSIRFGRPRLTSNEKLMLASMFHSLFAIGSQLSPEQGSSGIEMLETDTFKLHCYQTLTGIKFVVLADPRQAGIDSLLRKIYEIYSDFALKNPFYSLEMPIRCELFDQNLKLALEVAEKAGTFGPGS
UniProt Q9UKA8, whole entry: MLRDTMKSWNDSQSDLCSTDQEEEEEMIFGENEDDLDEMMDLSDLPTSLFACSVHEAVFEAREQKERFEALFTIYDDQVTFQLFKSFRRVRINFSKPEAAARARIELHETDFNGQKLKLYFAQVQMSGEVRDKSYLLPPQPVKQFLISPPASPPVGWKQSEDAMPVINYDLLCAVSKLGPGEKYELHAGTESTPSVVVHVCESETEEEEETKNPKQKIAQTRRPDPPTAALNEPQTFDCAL
UniProt Q9UNZ2: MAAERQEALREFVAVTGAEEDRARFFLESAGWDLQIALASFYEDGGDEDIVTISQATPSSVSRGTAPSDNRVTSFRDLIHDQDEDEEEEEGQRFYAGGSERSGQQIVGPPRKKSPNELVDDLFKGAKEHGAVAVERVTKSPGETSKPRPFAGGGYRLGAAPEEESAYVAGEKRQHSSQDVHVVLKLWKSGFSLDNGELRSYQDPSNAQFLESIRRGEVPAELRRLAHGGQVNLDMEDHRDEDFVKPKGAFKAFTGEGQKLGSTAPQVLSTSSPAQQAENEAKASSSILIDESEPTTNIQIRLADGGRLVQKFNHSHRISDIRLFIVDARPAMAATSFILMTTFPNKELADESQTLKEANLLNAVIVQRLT

± gives the standard deviation of the averaged measurements. The entries are a selection whose mix differs from that of the whole data set. Small differences around the control level are noise.

Compound in the experiment: Nc1ncnc2c1ncn2[C@@H]1O[C@H](COP(=O)(O)OP(=O)(O)OP(=O)(O)O)[C@@H](O)[C@H]1O [adenosine triphosphate]
Briefly: NP40-soluble protein abundance relative to vehicle (solubility fold change) (ratio); higher = more soluble protein in presence of ATP. The procedure, abridged: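 Eight concentrations, 0.1 to 10 mM, were tested on Jurkat crude lysate for 10 min at room temperature and then 3 min at 37 °C, in three independent experiments. The lysate was solubilised with 0.8% NP40 and benzonase, ultracentrifuged, and the supernatant TMT-labelled for LC-MS/MS. Each value is the fold change against the detergent-processed vehicle in its own replicate, from vsn-normalised intensities.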

UniProt Q9UJY5 and related entries: the NP40-soluble protein abundance by setting is: (concentration: 0.1mM) 0.97 ± 0.059; (concentration: 0.5mM) 0.979 ± 0.04.

In the case of MINPP1 (UniProt Q9UNW1), the NP40-soluble protein abundance is, setting by setting: (concentration: 0.1mM) 0.99 ± 0.027; (concentration: 0.5mM) 1 ± 0.014.

Consider ZMYM2 (UniProt Q9UBW7), for which the NP40-soluble protein abundance (concentration: 0.1mM) came to 0.994 ± 0.021 and the NP40-soluble protein abundance (concentration: 0.5mM) turned out to be 0.974 ± 0.045.

UniProt Q9Y250 and related entries: the NP40-soluble protein abundance is, setting by setting: (concentration: 0.1mM) 1.02 ± 0.067; (concentration: 0.5mM) 1 ± 0.088.

As for “UniProt Q9UMZ2-3|Q9UMZ2-4|Q9UMZ2-5|Q9UMZ2-6|Q9UMZ2-7|Q9UMZ2-8|Q9UMZ2-9|Q9UMZ2”, the NP40-soluble protein abundance amounted to 0.963 ± 0.015 (concentration: 0.1mM) and 0.949 ± 0.043 (concentration: 0.5mM).

For VPS4A (UniProt Q9UN37), the NP40-soluble protein abundance reads like this: (concentration: 0.1mM) 1.11 ± 0.067; (concentration: 0.5mM) 1.25 ± 0.14.

In the case of UniProt Q9UER7 and related entries, the NP40-soluble protein abundance is 0.959 ± 0.057 (concentration: 0.1mM) and 0.939 ± 0.062 (concentration: 0.5mM).

Turning to UniProt Q9UHC7 and related entries, the NP40-soluble protein abundance reads like this: (concentration: 0.1mM) 0.925 ± 0.06; (concentration: 0.5mM) 0.985 ± 0.08.

As to UniProt Q9UGU0 and related entries, the NP40-soluble protein abundance was 1 ± 0.079 (concentration: 0.1mM) and 1.05 ± 0.064 (concentration: 0.5mM).

For the target UniProt Q9UK41 and related entries, the NP40-soluble protein abundance (concentration: 0.1mM) came to 0.963 ± 0.046 and the NP40-soluble protein abundance (concentration: 0.5mM) amounted to 0.951 ± 0.089.

Take CGGBP1 (UniProt Q9UFW8): the NP40-soluble protein abundance (concentration: 0.1mM) turned out to be 0.953 ± 0.083 and the NP40-soluble protein abundance (concentration: 0.5mM) is 0.947 ± 0.086.

Regarding UniProt Q9P2D3 and related entries, the NP40-soluble protein abundance was found to be 0.953 ± 0.11 (concentration: 0.1mM) and 0.968 ± 0.056 (concentration: 0.5mM).

For the target UniProt Q9UH92 and related entries, the NP40-soluble protein abundance is 0.973 ± 0.056 (concentration: 0.1mM) and 1.04 ± 0.039 (concentration: 0.5mM).

In the case of VPS51 (UniProt Q9UID3), the NP40-soluble protein abundance is 1.02 ± 0.028 (concentration: 0.1mM) and 1 ± 0.023 (concentration: 0.5mM).

On to TTF2 (UniProt Q9UNY4), for which the NP40-soluble protein abundance turned out to be 0.996 ± 0.018 (concentration: 0.1mM) and 1.02 ± 0.035 (concentration: 0.5mM).

For the target NDUFA12 (UniProt Q9UI09), the NP40-soluble protein abundance is 0.953 ± 0.072 (concentration: 0.1mM) and 0.994 ± 0.081 (concentration: 0.5mM).

As to TRAPPC4 (UniProt Q9Y296), the NP40-soluble protein abundance is, setting by setting: (concentration: 0.1mM) 1 ± 0.072; (concentration: 0.5mM) 0.97 ± 0.013.

DNAJB11 (UniProt Q9UBS4): the NP40-soluble protein abundance reads like this: (concentration: 0.1mM) 1.07 ± 0.073; (concentration: 0.5mM) 1.05 ± 0.082.

Take UniProt Q9UKA8 and related entries: the NP40-soluble protein abundance came to 0.964 ± 0.087 (concentration: 0.1mM) and 0.93 ± 0.12 (concentration: 0.5mM).

For the target UniProt Q9UNZ2 and related entries, the NP40-soluble protein abundance is, setting by setting: (concentration: 0.1mM) 1.12 ± 0.06; (concentration: 0.5mM) 0.987 ± 0.023.
